Substitutions are numbered along the chain they refer to. No constants are given. Whether binding was seen depends on the method and setting. Some entries that bind do so weakly or less than the wild type.
How the values were obtained:
[1] = target: influenza A/Puerto Rico/8/34 (PR8) virus particles (M2 protein on the virion) (influenza A virus H1N1 A/Puerto Rico/8/34) (UniProt P06821); test: ELISA on virus, crude supernatant
[2] = target: influenza A/Puerto Rico/8/34 (PR8) virus particles (M2 protein on the virion) (influenza A virus H1N1 A/Puerto Rico/8/34) (UniProt P06821); test: ELISA on A/Puerto Rico/8/34 virus
[3] = target: influenza A/Puerto Rico/8/34 (PR8) virus particles (M2 protein on the virion) (influenza A virus H1N1 A/Puerto Rico/8/34) (UniProt P06821); test: ELISA on purified A/Puerto Rico/8/34 virus coated at 10 µg/ml
[4] = target: influenza A/Puerto Rico/8/34 (PR8) virus particles (M2 protein on the virion) (influenza A virus H1N1 A/Puerto Rico/8/34) (UniProt P06821); test: ELISA on PR8 virus, crude supernatant
[5] = target: influenza A/Puerto Rico/8/34 (PR8) virus particles (M2 protein on the virion) (influenza A virus H1N1 A/Puerto Rico/8/34) (UniProt P06821); test: ELISA on coated UV-inactivated A/PR/8/34 virus

Chains of the proteins cited; added tags and fusions are not shown.
UniProt P06821: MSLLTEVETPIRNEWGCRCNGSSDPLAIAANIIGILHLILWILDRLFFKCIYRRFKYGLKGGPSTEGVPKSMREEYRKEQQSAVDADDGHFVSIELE

Measured: binding

B1: 8I10 (TCN-032) (antibody, V domains shown)
VH: QVQLQESGPGLVKPSETLSLTCTVSGSSISNYYWSWIRQSPGKGLEWIGFIYYGGNTKYNPSLKSRVTISQDTSKSQVSLTMSSVTAAESAVYFCARASCSGGYCILDYWGQGTLVTVS
VL: DIQMTQSPSSLSASVGDRVTITCRASQNIYKYLNWYQQRPGKAPKGLISAASGLQSGVPSRFSGSGSGTDFTLTITSLQPEDFATYYCQQSYSPPLTFGGGTRVEIK
binds: all assays above

B2: 21B15 (antibody, V domains shown)
VH: B1 VH
VL: B1 VL with M4V, E105D
binds: [1] | [4]
